In the assay the target is RARA-DDK protein (epitope-tagged retinoic acid receptor alpha) (UniProt P10276). The assay is described as follows: affinity purification with mass spectrometry; anti-DDK immunoprecipitate of RARA-DDK from HEK293 whole cell lysate, no retinoic acid treatment; SDS-PAGE, in-gel tryptic digestion, LC-MS/MS.

Sequences of proteins named here, by UniProt entry; tags and fusion partners are left off.
UniProt P10276: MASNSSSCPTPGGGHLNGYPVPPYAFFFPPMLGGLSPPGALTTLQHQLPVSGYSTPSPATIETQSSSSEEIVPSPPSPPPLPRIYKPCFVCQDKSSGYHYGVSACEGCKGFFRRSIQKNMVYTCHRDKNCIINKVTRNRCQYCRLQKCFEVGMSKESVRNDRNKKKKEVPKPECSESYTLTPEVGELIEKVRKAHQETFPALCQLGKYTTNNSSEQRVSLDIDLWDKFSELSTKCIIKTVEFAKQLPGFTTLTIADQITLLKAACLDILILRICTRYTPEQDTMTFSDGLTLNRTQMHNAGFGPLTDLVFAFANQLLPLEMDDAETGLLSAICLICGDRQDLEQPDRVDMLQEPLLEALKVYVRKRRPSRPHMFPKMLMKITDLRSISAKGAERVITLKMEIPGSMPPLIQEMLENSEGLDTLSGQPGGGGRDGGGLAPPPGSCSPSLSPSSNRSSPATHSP

These are yes or no findings as the source states them, for the method shown. In cells and extracts the contact can be indirect. Here binding means that the protein was enriched with, or labelled near, the bait; the list need not be complete.

On to “valosin-containing protein (VCP/p97/Cdc48), endogenous in HEK293 (from UniProt P55072 1-806)”, for which the binding entry was “binds”.

Source of the values: publication PMC6838077.
